# Results from one PubChem assay

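GFP signal from normal-ribosome E. coli grown alongside a humanized-ribosome RFP strain, measured on a plate reader after one day. Percent-style change in GFP activity at 50 µM; values more negative mean stronger inhibition. Active needs green reporter loss at least twice the red loss with limited overall growth inhibition; inconclusive means no clear call.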

Common to all entries: at 50 µM (top of the series). All entries here are filed as inconclusive. These entries are mostly ones the record files as inconclusive; other results of the assay are not listed here.

| # | SMILES | activity change |
|---|---|---|
| 1 | `CC(=O)Nc1ccc(S(=O)(=O)Nc2ccc(C)c([N+](=O)[O-])c2)cc1` | -34.04 |
| 2 | `CC(=O)c1cccc(NC(=O)COC(=O)C2CCCN2C(=O)c2cccs2)c1` (centres undefined) | 4.615 |
| 3 | `O=C(COc1ccc(S(=O)(=O)N2CCCC2)cc1)NCCC1=CCCCC1` | -15.73 |
| 4 | `O=C(Cn1cc(COc2c(F)c(F)cc(F)c2F)nn1)c1ccc(O)cc1` | -2.666 |
| 5 | `COc1ccccc1N(C)S(=O)(=O)c1ccc(C(=O)NC(C)c2ccccc2)cc1` (centres undefined) | -31.3 |
| 6 | `CC(C)Cc1nc(N2CCNCC2)c(C#N)c2c1CCC2` | -3.404 |
| 7 | `O=C(Cn1c(C(=O)NCc2ccco2)cc2sccc21)c1ccccc1` | -29.96 |
| 8 | `COc1ccc(OCC(O)CNS(=O)(=O)c2cccc(Cl)c2)cc1` (centres undefined) | -27.39 |
| 9 | `O=C(NCc1ccccc1Cl)c1ccc2c(c1)SC1=NS(=O)(=O)CCN12` | -10.91 |
| 10 | `COc1ccc(Cn2c(=O)c3[nH]cnc3n(-c3ccc(C)cc3)c2=O)cc1` | 9.101 |
| 11 | `COc1cccc(C(=O)NC2CC3CCCC(C2)N3S(=O)(=O)c2ccccc2)c1` (centres undefined) | -30.68 |
| 12 | `COC(=O)c1cc2c(c3c4cc(OC)ccc4n(C(=O)c4ccccc4)c13)C(=O)N(Cc1ccco1)C2` | -4.622 |
| 13 | `COc1ccc(-c2cn3c(C)c(C(=O)Nc4cccc(C)n4)sc3n2)cc1` | -33.34 |
| 14 | `O=C(O)c1ccccc1Nc1cc(Cl)c2nonc2c1[N+](=O)[O-]` | 15.05 |
| 15 | `CCOC(=O)c1c(CS(=O)(=O)c2ccccc2)n(C)c2cc(Br)c(O)cc12` | 1.885 |
| 16 | `O=C(c1cccc(F)c1)N1CCN(c2ccc([N+](=O)[O-])c3cccnc23)CC1` | -4.201 |
| 17 | `CCN(c1ccc(OC)cc1)S(=O)(=O)c1cc(-c2cc(C)no2)ccc1OC` | -24.07 |
| 18 | `O=C(O)c1cccnc1SCc1ccccc1Cl` | -27.05 |
| 19 | `COc1ccc(-c2csc(C)n2)cc1Br` | -18.13 |
| 20 | `O=S1(=O)c2ccccc2C(O)(c2ccccc2)c2ccccc21` | -13.18 |
| 21 | `Cc1ccc(C(=O)NCc2ccccc2)c(F)c1F` | 23.15 |
| 22 | `Cn1c(SCC(=O)Nc2ccccc2-c2ccccc2)nnc1-c1ccco1` | 11.94 |
| 23 | `CN1c2ccc(Cl)cc2C(=O)NC1C1CC=CCC1` (centres undefined) | 9.827 |
| 24 | `CN(C)c1ccc(-c2nnn(Cc3ccccc3Br)n2)cc1` | -29.23 |
| 25 | `O=C(NCc1ccco1)c1ccc2ccccc2n1` | 32.1 |
| 26 | `CC(=O)Nc1cccc(OCCCOc2cccc([N+](=O)[O-])c2)c1` | -25.83 |
| 27 | `CCN(CC)S(=O)(=O)c1cc(NC(=O)C(C)N2CCN(Cc3ccc4c(c3)OCO4)CC2)ccc1C` (centres undefined) | -5.24 |
| 28 | `Cc1ccccc1S(=O)(=O)N1C[C@H]2CON(C)[C@H]2C[C@H]1c1cccc(-c2ccc(C#N)cc2)c1` | -7.419 |
| 29 | `CCOC(=O)c1cc(C)nc(N2CCCCC2)c1C#N` | -11.51 |
| 30 | `COc1cc(NC(=O)CSCc2ccc(Cl)cc2Cl)c(C(=O)O)cc1OC` | 7.353 |
| 31 | `COC(=O)CN1C(=S)N(c2ccc(F)cc2)C(=O)C1CC(=O)Nc1ccc(OC)cc1` (centres undefined) | 3.353 |
| 32 | `O=C(Nc1cccc2c1CCCC2)c1ccco1` | -14.15 |
| 33 | `CCOC(=O)c1[nH]c2ccccc2c1NC(=O)c1ccc(Br)o1` | -28.46 |
| 34 | `Cc1ccccc1COc1ccc(-c2nn[nH]n2)cc1` | -18.16 |
| 35 | `COc1ccc(-c2noc(CCc3ccccc3)n2)cc1` | -31.49 |
| 36 | `O=C(c1ccccc1)C1Oc2ccccc2C2CC(c3cccs3)=NN12` (centres undefined) | 2.751 |
| 37 | `COc1ccc(C(=O)Nc2ccc3oc(Cc4ccc(Cl)cc4)nc3c2)cc1OC` | -36.52 |
| 38 | `CN(C)C(CNc1ncnc2sc3c(c12)CCCCC3)c1ccco1` (centres undefined) | -25.41 |
| 39 | `Cc1ccc(OCCCC(=O)NC(C)c2ccccc2)c(C)c1` (centres undefined) | -15.53 |
| 40 | `Cc1ccccc1SCC(=O)OCC(=O)Nc1sccc1C(N)=O` | -22.96 |
| 41 | `COCC#Cc1ccc2c(c1)O[C@H](CN(C)C(=O)c1ccccc1)[C@@H](C)CN([C@H](C)CO)S2(=O)=O` | -22.43 |
| 42 | `CCOc1ccc(S(=O)(=O)Nc2ccc(S(=O)(=O)N3CCCC3)cc2)cc1` | -23.86 |
| 43 | `O=C(O)c1ccc2c(c1)N(Cc1ccc(F)cc1)C(=O)c1ccccc1S2` | -15.29 |
| 44 | `Cc1ccccc1S(=O)(=O)c1cc2ccccc2nc1N` | -6.951 |
| 45 | `O=C(NCCc1ccc(O)cc1)c1[nH]c(C(F)(F)F)nc1-c1ccccc1` | 0.658 |

For reference, 4 entries once more:

Result for COC(=O)c1cc2c(c3c4cc(OC)ccc4n(C(=O)c4ccccc4)c13)C(=O)N(Cc1ccco1)C2 was activity change -4.622.
Result for CC(=O)c1cccc(NC(=O)COC(=O)C2CCCN2C(=O)c2cccs2)c1 (centres undefined) was activity change 4.615.
Result for Cc1ccccc1S(=O)(=O)N1C[C@H]2CON(C)[C@H]2C[C@H]1c1cccc(-c2ccc(C#N)cc2)c1 was activity change -7.419.
Result for O=C(Cn1c(C(=O)NCc2ccco2)cc2sccc21)c1ccccc1 was activity change -29.96.

Source: PubChem BioAssay AID977630 (Broad Institute, 2014).